This passage reports binding results from paper PMC12781078.

Test [1] deals with T1, DCBLD1-Flag (discoidin, CUB and LCCL domain containing 1, full length) (UniProt Q8N8Z6).
T1 sequence: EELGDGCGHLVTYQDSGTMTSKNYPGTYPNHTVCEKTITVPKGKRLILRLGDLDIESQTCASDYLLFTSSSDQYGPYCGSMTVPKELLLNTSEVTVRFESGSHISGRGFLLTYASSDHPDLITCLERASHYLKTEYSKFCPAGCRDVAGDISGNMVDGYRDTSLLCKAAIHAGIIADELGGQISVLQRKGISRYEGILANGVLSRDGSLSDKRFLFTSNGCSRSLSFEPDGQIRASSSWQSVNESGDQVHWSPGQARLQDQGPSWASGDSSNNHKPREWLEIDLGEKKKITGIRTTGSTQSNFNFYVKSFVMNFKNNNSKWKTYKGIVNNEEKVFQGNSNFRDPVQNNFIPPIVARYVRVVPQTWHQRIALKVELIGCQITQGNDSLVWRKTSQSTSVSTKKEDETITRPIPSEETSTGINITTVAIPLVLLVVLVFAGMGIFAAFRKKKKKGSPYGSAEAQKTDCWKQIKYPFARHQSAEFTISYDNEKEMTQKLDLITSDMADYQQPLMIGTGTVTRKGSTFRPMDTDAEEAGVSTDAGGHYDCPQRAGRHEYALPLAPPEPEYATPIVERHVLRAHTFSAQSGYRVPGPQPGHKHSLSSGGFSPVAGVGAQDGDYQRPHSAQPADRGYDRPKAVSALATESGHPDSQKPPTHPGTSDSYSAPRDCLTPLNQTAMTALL
As to the kind of experiment: co-IP; DCBLD1 with DCBLD2 (Figure S4B); cells and tags not given.

Test [2] addresses EGFR-HA (full length) (UniProt P00533). Nature of the test: co-IP; competition: HEK293T cells co-transfected with EGFR-HA, PTP1B-Flag and increasing DCBLD1-Flag, or with EGFR-HA, DCBLD1-Flag and increasing PTP1B-Flag; IP with HA antibodies, blot with HA and Flag antibodies.
For test [3] the target is unchanged. As to the kind of experiment: co-IP; HEK-293T cells transfected with 3 ug of each plasmid for 48 h; lysates in WB/IP lysis buffer incubated with anti-Flag or anti-HA beads overnight at 4 °C; Western blot. (In general: A western blot detects proteins with antibodies after separation by electrophoresis.)
Test [4] concerns the target EGFR, endogenous in A549 and H1299 cells (human (endogenous in A549 and H1299)) (UniProt P00533). Nature of the test: co-IP; endogenous proteins; A549 and H1299 lysates incubated with 2 ug anti-EGFR, anti-DCBLD1 or normal IgG overnight at 4 °C, captured with Protein A/G beads; Western blot.

No constants are given. Whether binding was seen depends on the method and setting. In cells and extracts the contact can be indirect. Some binding calls cover weakened binding; strength is not graded here. For some of these results: Sequences can lack the tags named with a protein.

B1: DCBLD2 (full length, tagged) (protein, UniProt Q96PD2 67-775)
chain: QQGDGCGHTVLGPESGTLTSINYPQTYPNSTVCEWEIRVKMGERVRIKFGDFDIEDSDSCHFNYLRIYNGIGVSRTEIGKYCGLGLQMNHSIESKGNEITLLFMSGIHVSGRGFLASYSVIDKQDLITCLDTASNFLEPEFSKYCPAGCLLPFAEISGTIPHGYRDSSPLCMAGVHAGVVSNTLGGQISVVISKGIPYYESSLANNVTSVVGHLSTSLFTFKTSGCYGTLGMESGVIADPQITASSVLEWTDHTGQENSWKPKKARLKKPGPPWAAFATDEYQWLQIDLNKEKKITGIITTGSTMVEHNYYVSAYRILYSDDGQKWTVYREPGVEQDKIFQGNKDYHQDVRNNFLPPIIARFIRVNPTQWQQKIAMKMELLGCQFIPKGRPPKLTQPPPPRNSNDLKNTTAPPKIAKGRAPKFTQPLQPRSSNEFPAQTEQTTASPDIRNTTVTPNVTKDVALAAVLVPVLVMVLTTLILILVCAWHWRNRKKKTEGTYDLPYWDRAGWWKGMKQFLPAKAVDHEETPVRYSSSEVNHLSPREVTTVLQADSAEYAQPLVGGIVGTLHQRSTFKPEEGKEAGYADLDPYNSPGQEVYHAYAEPLPITGPEYATPIIMDMSGHPTTSVGQPSTSTFKATGNQPPPLVGTYNTLLSRTDSCSSAQAQYDTPKAGKPGLPAPDELVYQVPQSTQEVSGAGRDGECDVFKEIL
Take B1: the binding entry in test [1] is recorded as “no binding”.

B2: DCBLD1-Flag (discoidin, CUB and LCCL domain containing 1, full length) (protein, UniProt Q8N8Z6 35-715)
chain: EELGDGCGHLVTYQDSGTMTSKNYPGTYPNHTVCEKTITVPKGKRLILRLGDLDIESQTCASDYLLFTSSSDQYGPYCGSMTVPKELLLNTSEVTVRFESGSHISGRGFLLTYASSDHPDLITCLERASHYLKTEYSKFCPAGCRDVAGDISGNMVDGYRDTSLLCKAAIHAGIIADELGGQISVLQRKGISRYEGILANGVLSRDGSLSDKRFLFTSNGCSRSLSFEPDGQIRASSSWQSVNESGDQVHWSPGQARLQDQGPSWASGDSSNNHKPREWLEIDLGEKKKITGIRTTGSTQSNFNFYVKSFVMNFKNNNSKWKTYKGIVNNEEKVFQGNSNFRDPVQNNFIPPIVARYVRVVPQTWHQRIALKVELIGCQITQGNDSLVWRKTSQSTSVSTKKEDETITRPIPSEETSTGINITTVAIPLVLLVVLVFAGMGIFAAFRKKKKKGSPYGSAEAQKTDCWKQIKYPFARHQSAEFTISYDNEKEMTQKLDLITSDMADYQQPLMIGTGTVTRKGSTFRPMDTDAEEAGVSTDAGGHYDCPQRAGRHEYALPLAPPEPEYATPIVERHVLRAHTFSAQSGYRVPGPQPGHKHSLSSGGFSPVAGVGAQDGDYQRPHSAQPADRGYDRPKAVSALATESGHPDSQKPPTHPGTSDSYSAPRDCLTPLNQTAMTALL
In the case of B2, the binding result with EGFR-HA (full length) [2] and in the test with EGFR-HA (full length) [3] was “binds” throughout.

B3: DCBLD1, endogenous in A549 and H1299 cells (protein, UniProt Q8N8Z6 35-715)
chain: EELGDGCGHLVTYQDSGTMTSKNYPGTYPNHTVCEKTITVPKGKRLILRLGDLDIESQTCASDYLLFTSSSDQYGPYCGSMTVPKELLLNTSEVTVRFESGSHISGRGFLLTYASSDHPDLITCLERASHYLKTEYSKFCPAGCRDVAGDISGNMVDGYRDTSLLCKAAIHAGIIADELGGQISVLQRKGISRYEGILANGVLSRDGSLSDKRFLFTSNGCSRSLSFEPDGQIRASSSWQSVNESGDQVHWSPGQARLQDQGPSWASGDSSNNHKPREWLEIDLGEKKKITGIRTTGSTQSNFNFYVKSFVMNFKNNNSKWKTYKGIVNNEEKVFQGNSNFRDPVQNNFIPPIVARYVRVVPQTWHQRIALKVELIGCQITQGNDSLVWRKTSQSTSVSTKKEDETITRPIPSEETSTGINITTVAIPLVLLVVLVFAGMGIFAAFRKKKKKGSPYGSAEAQKTDCWKQIKYPFARHQSAEFTISYDNEKEMTQKLDLITSDMADYQQPLMIGTGTVTRKGSTFRPMDTDAEEAGVSTDAGGHYDCPQRAGRHEYALPLAPPEPEYATPIVERHVLRAHTFSAQSGYRVPGPQPGHKHSLSSGGFSPVAGVGAQDGDYQRPHSAQPADRGYDRPKAVSALATESGHPDSQKPPTHPGTSDSYSAPRDCLTPLNQTAMTALL
As for B3, the binding entry in test [4] was “binds”.
